In patent publication US20210015858A1:
Results are given in words; binding and its absence hold for the method and conditions named. Some results given as binding are weak or reduced against the parent protein; the word gives no strength. Values belong to the binder of their own block, whether it stands above or below them.

Target: His-tagged cyno-TIGIT (cyno)
Test: ELISA

binding: binds
B1: 350D10 (antibody, human IgG1, V domains shown)
VH: EVKLVESGGALVQPGGSLKLSCAASGFTFSDYYMYWVRQTPEKRLEWVASITKGGGSTYYPDTLKGRFTISRDNAKNTLYLQMSRLKSEDTDMYYCARQSSYDFVMDYWGQGTSVTVSS
VL: DIVMTQSHKFMSTSVGDRVTITCKASQDVDTAVAWYQQKPGQSPKLLIYWASARHTGVPDRFTGSGSGTDFTLTISNVQSEDLADYFCQQYSNYPLTFGVGTKLELK

binding: binds
B2: 90D9 (antibody, V domains shown)
VH: EVQLQQSGPELVKPGASVKISCKTSGYTFTENTMHWVKQSHGKSLEWIGGINPNQGGNRNNQKFKGKATLTVDKSSSTAYMELRSLTSEDSAVYYCARSGLRDYAMDYWGQGTSVTVSS
VL: DIVMTQSHKFMSTSVGDRVSITCKASQHVSTAVVWYQQKPGQSPKLLIYSPSYRYTGVPDRFTGSGSGTDFTFTISSVQAEDLAVYYCQQHYSTPWTFGGGTKLEIK
